From patent publication US20260276660A1, “DETERMINATION OF PROGESTOGENS NON-INVASIVELY IN ANIMALS” (Vetcare Oy, priority 2023, published 2026)

Tests used:
Design in all cases: species or system dog
[1] = Semi-quantitative LC-HRMS analysis of urinary progestogen glucuronides; conditions: for amount found in dog urine: m/z 495 [M-H]-, diestrus phase urine
[2] = Quantitative measurement of urinary 5α-PtG with LC-HRMS
[3] = Urinary rapid test (lateral flow immunochromatographic test) for 5α-PtG detection; conditions: anestrus phase sample set as 100%
[4] = urine, eight bitches, EIC area m/z 495

## 5β-pregnane-3α,6α,20α/β-triol-glucuronides
[1]; dog urine, diestrus phase, EIC m/z 511
  area of the corresponding peak from the abundant urinary PtG metabolite: 0.9-1.1%
[1]
  amount found in dog urine: Only traces

## 5β-pregnane-3α,20β-diol glucuronide [PdGβ]
[2]; urine, average in eight bitches
  area of PdGβ (extracted ion chromatogram) from the area of 5α-PtG, average: 4.3%
[1]; [4]
  average ratio between PdGβ and PdGα: 5.0
  ratio between PdGβ and PdGα, range: 1.0-14.7

## C[C@@H](O)[C@H]1CC[C@H]2[C@@H]3C[C@H](O[C@@H]4O[C@H](C(=O)O)[C@@H](O)[C@H](O)[C@H]4O)[C@H]4C[C@@H](O)CC[C@]4(C)[C@H]3CC[C@]12C [5α-PtG, 5α-pregnane-3β,6α,20β-triol-6-O-β-D-glucuronide]
[3]; diestrus phase urine
  intensity of the test line: ~10%
[3]; oestrus phase urine
  intensity of the test line: ~50%
[3]; proestrus phase urine
  intensity of the test line: approximately 90%
[2]; four days after ovulation, eight bitches
  average concentration of urinary 5α-PtG (sum of PtG1 and PtG2): 2.5 µM
[2]; from beginning of LH peak to estimated onset of ovulation, vs average before estimated LH peak
  increase of 5α-PtG concentration: over 100%
[2]; six-day period, from -2 to +4 days from estimated onset of ovulation
  increase of 5α-PtG concentration: 800%

## C[C@H](O)[C@H]1CC[C@H]2[C@@H]3CC[C@@H]4C[C@H](O[C@@H]5O[C@H](C(=O)O)[C@@H](O)[C@H](O)[C@H]5O)CC[C@]4(C)[C@H]3CC[C@]12C [PdG, 5β-pregnane-3α,20α-diol-3-glucuronide]
[1]
  amount found in dog urine: only in traces
